Assay results from PMC11390915, “Histones and histone variant families in prokaryotes” (Nature Communications, 2024).
These are yes or no findings as the source states them, for the method shown. Some results given as binding are weak or reduced against the parent protein; the word gives no strength. Sequences can lack the tags named with a protein.

Biological target: face-to-face (FtF) histone from Thermococcus kodakarensis (HTkC) (Thermococcus kodakarensis) (UniProt Q5JDW7)
Assay: crystal structure; HTkC at 4.0 mg/mL in 50 mM Tris-HCl pH 7.0, 100 mM KCl, 10% glycerol; sitting drop vapor diffusion, reservoir 0.01 M trisodium citrate, 33% (w/v) PEG 6000; space group P2(1)2(1)2(1), 1.84 Å; four monomers in the asymmetric unit; both purified

- binding: binds
B1: face-to-face (FtF) histone from Thermococcus kodakarensis (HTkC) (natural protein)
chain: MAEMLVKSKVKEFVKSVDPEMRVSPEFYDALEAEVKALVEKAIKRAQAEGRKTLYARHV
notes: Face-to-face (FtF) histone HTkC of Thermococcus kodakarensis, product of gene TK1040; synthesized gene cloned into pET30b (plasmid pRD503); The purification used heat, heparin and SEC only, so the protein is probably untagged (surmised); Oligonucleotides for cloning are in the Supplementary Information; also called FtF histone HTkC; TK1040; source: E. coli BL21(DE3)pLysS, purified (heating at 70 …)
